Data from US20210128609A1, “ONCOLOGY TREATMENTS USING ZINC AGENTS” (XYLONIX IP HOLDINGS PTE. LTD., priority 2018, published 2021).

Experiments:
Assay type in all cases: cell-based
Conditions in all cases: 96 h
HeLa = assay: CellTiter-Glo cell viability, HeLa
Procedure: (§1) The 50% inhibitory concentration (IC50) was determined in the cancer cell lines using CellTiter-Glo luminescent cell viability assay after incubation with different concentrations of active agents. Each cell line was treated with active Zn(II) agent, a standard chemotherapy drug as reference control, and culture medium as vehicle control. Cell Lines. All cell lines were cultured in media supplemented with 10-15% FBS, at a temperature of 37° C., 5% CO2, and 95% humidity. The reference control drug for all cell lines was cisplatin, to be used for genomic analysis. The cell lines tested, the tissue of origin are shown below in Table 1: Procedure for Determining Half Maximal Inhibition Concentration IC50 • 1. Harvested cells during the logarithmic growth period and count cell number using Count-star. • 2. Adjusted cell concentrations to 4.44×10^4 cells/mL with respective culture medium. • 3. Added 90 μL cell suspensions to two 96-well plates (plates A and B) with the final cell density of 4×10^3 cells/well. (cell concentration was adjusted according to the data base or density optimization assay.) • 4a. […]

MCF7 = assay: CellTiter-Glo cell viability, MCF7
Procedure: as §1

A549 = assay: CellTiter-Glo cell viability, A549
Procedure: as §1

SK-OV-3 = assay: CellTiter-Glo cell viability, SK-OV-3
Procedure: as §1

`N.N.[Cl][Pt][Cl]` [Cisplatin] was tested, and the “Absolute IC50” value (HeLa) was 0.05 µg/mL, the “Absolute IC50” value (MCF7) was 1.64 µg/mL and the “Absolute IC50” value (A549) was 0.88 µg/mL. For the same compound, the “Absolute IC50” value (SK-OV-3) was 0.54 µg/mL.
